Reference: paper PMC8482512
These are yes or no findings as the source states them, for the method shown. Binding seen in cells or lysates may run through a third protein. These calls come from enrichment with a bait or labelling near it, and not all partners need be listed. Blank lines part the entries; values can stand above or below the binder they belong to.

The chains behind the UniProt entries cited, without tags or fusion partners. Where a name states a change or a piece, a line headed by the entry shows the natural chain unless it says otherwise.
UniProt Q04689: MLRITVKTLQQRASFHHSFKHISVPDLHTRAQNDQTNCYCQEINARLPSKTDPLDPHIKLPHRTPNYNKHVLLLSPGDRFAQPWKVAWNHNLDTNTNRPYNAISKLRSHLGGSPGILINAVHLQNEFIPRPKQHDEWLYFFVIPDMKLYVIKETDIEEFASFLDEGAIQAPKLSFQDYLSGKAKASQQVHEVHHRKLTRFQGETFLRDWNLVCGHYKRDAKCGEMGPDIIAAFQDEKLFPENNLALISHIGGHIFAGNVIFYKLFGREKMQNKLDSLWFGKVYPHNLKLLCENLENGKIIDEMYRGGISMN

Biological target: Aim32 with a C-terminal FLAG tag (Aim32-FLAG) (S. cerevisiae) (UniProt Q04689)
Test: affinity purification with mass spectrometry; mitochondrial lysates of Δaim32 [pAIM32-FLAG] or Δaim32 + Vec purified with FLAG beads, washed, LC-MS/MS

- binding: binds
B1: Mia40 (protein, UniProt P36046 32-403)
chain: MASSPQFGRNSNQEKTAGFIMGILSMAGALYFIAPNRKPLFASRKVESDKTAEEELSSGGEQSPENEDDNNSKSDENGDDNDSKNDETEAGPQLGGDKIGASKVAEDGELVVLAEEDNKSSEDKDTDESKVSTKDDEQSNEDNATANNQKDENISSENSEENTSDKTLDNNAGSSEKKDPEHSDDEKSQQGQSDDKTTTEDNNGEEESSKKTVSDSENSAKQSESSDEEKEELRKQEEKQMGPTEEEVQHEGAYNPDTGEINWDCPCLGGMAHGPCGEEFKSAFSCFVYSEAEPKGIDCVEKFQHMQDCFRKYPEHYAEQLKETSDDEEPQDKVKVNTIESAPNVSSAKENAAKKAEQSDVKKEPLNEESKP

- binding: binds
B2: Tim23 (protein, UniProt P32897 1-222)
chain: MSWLFGDKTPTDDANAAVGGQDTTKPKELSLKQSLGFEPNINNIISGPGGMHVDTARLHPLAGLDKGVEYLDLEEEQLSSLEGSQGLIPSRGWTDDLCYGTGAVYLLGLGIGGFSGMMQGLQNIPPNSPGKLQLNTVLNHITKRGPFLGNNAGILALSYNIINSTIDALRGKHDTAGSIGAGALTGALFKSSKGLKPMGYSSAMVAAACAVWCSVKKRLLEK

- binding: binds
B3: Sod2 (enzyme, UniProt P00447 27-233)
chain: KVTLPDLKWDFGALEPYISGQINELHYTKHHQTYVNGFNTAVDQFQELSDLLAKEPSPANARKMIAIQQNIKFHGGGFTNHCLFWENLAPESQGGGEPPTGALAKAIDEQFGSLDELIKLTNTKLAGVQGSGWAFIVKNLSNGGKLDVVQTYNQDTVTGPLVPLVAIDAWEHAYYLQYQNKKADYFKAIWNVVNWKEASRRFDAGKI

- binding: binds
B4: Tim17 (protein, UniProt P39515 1-158)
chain: MSADHSRDPCPIVILNDFGGAFAMGAIGGVVWHGIKGFRNSPLGERGSGAMSAIKARAPVLGGNFGVWGGLFSTFDCAVKAVRKREDPWNAIIAGFFTGGALAVRGGWRHTRNSSITCACLLGVIEGVGLMFQRYAAWQAKPMAPPLPEAPSSQPLQA
